Like-named read-outs stand apart in the source and are kept apart here. These are yes or no findings as the source states them, for the method shown. In cells and extracts the contact can be indirect. A yes stands for co-enrichment or nearness to the bait. Other partners may have been found. For part of these data: A no says only that the protein was not detected with the bait. For part of these data: Where a sequence is shown, tags or fusion partners need not be part of it. Each block holds one molecule with its values, some of them ahead of it.
Tests used:
Assay in all cases: proximity labelling
[1] = target: GFI1B-P2A-BirA*:HA (mouse (cDNA from MEL cells)) (UniProt O70237)
[2] = target: GFI1B-ΔSNAG-BirA*:HA (mouse (cDNA from MEL cells)) (UniProt O70237)
[3] = target: T1, SNAG-BirA*:HA (mouse (cDNA from MEL cells)) (UniProt O70237)
T1 sequence: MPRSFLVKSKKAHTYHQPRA

Amino acid sequences for entries named in this document (tags omitted).
UniProt Q92769: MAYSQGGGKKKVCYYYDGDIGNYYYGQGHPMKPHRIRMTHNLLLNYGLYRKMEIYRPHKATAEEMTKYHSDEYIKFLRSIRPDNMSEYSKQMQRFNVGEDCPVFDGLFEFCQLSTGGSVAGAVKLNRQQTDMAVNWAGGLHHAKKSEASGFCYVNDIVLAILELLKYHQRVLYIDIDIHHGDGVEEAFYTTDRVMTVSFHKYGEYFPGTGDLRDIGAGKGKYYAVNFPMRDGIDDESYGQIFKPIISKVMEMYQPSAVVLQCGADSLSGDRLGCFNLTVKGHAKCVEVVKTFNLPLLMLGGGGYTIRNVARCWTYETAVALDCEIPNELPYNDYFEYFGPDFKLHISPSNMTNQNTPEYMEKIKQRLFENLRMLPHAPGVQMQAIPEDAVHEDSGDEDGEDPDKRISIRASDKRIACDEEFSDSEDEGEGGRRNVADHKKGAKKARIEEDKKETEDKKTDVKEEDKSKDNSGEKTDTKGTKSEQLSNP
UniProt Q12824: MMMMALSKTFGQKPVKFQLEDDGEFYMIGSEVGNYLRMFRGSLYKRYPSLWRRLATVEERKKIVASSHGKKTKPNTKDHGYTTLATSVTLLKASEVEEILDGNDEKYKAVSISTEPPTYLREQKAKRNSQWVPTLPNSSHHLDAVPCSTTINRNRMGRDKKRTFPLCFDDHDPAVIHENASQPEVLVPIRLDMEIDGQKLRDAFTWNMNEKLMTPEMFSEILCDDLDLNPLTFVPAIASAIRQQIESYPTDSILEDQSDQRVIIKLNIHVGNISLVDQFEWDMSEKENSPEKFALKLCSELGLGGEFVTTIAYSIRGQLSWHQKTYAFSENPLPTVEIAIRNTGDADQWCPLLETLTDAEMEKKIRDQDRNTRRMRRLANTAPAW
UniProt Q92922: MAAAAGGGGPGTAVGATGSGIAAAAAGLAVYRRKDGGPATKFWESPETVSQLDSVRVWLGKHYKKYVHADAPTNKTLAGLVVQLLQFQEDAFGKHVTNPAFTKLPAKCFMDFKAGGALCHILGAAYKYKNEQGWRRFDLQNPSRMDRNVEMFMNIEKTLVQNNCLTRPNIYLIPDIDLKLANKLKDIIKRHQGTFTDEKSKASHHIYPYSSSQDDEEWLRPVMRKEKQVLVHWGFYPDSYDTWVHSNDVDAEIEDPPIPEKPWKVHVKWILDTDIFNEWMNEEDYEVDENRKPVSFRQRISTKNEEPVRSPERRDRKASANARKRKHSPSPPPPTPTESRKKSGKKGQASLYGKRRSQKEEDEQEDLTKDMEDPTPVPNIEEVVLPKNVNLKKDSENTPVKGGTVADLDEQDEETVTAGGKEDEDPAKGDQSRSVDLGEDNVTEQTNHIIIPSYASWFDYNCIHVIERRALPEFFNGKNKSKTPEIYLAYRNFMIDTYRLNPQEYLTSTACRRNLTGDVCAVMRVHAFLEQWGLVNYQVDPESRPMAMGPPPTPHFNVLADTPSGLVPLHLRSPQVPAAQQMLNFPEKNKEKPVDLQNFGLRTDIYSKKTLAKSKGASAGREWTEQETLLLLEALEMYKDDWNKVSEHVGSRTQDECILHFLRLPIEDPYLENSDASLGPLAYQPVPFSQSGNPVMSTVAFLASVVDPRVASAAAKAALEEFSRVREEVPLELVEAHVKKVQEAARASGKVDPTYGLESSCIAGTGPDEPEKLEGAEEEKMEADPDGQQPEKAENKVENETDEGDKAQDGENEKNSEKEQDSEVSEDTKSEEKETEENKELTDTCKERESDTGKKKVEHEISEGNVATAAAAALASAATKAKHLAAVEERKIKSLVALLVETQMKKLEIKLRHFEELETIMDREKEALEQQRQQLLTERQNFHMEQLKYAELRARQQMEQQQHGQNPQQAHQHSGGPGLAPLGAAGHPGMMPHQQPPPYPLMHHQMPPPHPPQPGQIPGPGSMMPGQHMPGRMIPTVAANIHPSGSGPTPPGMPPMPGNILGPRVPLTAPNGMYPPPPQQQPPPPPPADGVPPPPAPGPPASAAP
UniProt Q13547: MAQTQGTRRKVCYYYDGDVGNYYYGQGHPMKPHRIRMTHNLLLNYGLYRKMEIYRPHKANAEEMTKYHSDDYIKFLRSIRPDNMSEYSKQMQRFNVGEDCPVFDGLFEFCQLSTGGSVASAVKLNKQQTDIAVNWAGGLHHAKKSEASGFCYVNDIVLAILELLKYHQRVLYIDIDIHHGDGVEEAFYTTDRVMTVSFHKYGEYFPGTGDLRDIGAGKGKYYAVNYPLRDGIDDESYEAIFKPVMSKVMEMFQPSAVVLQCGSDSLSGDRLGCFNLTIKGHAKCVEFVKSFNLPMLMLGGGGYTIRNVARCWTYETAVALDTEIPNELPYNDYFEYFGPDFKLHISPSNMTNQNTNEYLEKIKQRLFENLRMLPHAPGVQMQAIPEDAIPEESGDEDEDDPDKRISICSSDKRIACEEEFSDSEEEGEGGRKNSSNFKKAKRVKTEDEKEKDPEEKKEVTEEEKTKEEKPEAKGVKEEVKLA

[4] = target: GFI1B-BirA*:HA (mouse (cDNA from MEL cells)) (UniProt O70237)
[5] = target: GFI1B-P2A-BirA*:HA (mouse (cDNA from MEL cells)) (UniProt O70237); remark: listed apart in the source
[6] = target: GFI1B-ΔSNAG-BirA*:HA (mouse (cDNA from MEL cells)) (UniProt O70237); remark: listed apart in the source

Molecule: HDAC2, endogenous in K562 cells (from UniProt Q92769 1-488) (enzyme)
binding [1]: no binding
binding [2]: no binding

Molecule: SMARCB1, endogenous in K562 cells (from UniProt Q12824 1-385)
binding [3]: no binding
binding [4]: binds

Molecule: SMARCC1, endogenous in K562 cells (from UniProt Q92922 1-1105)
binding [3]: no binding
binding [4]: binds

Continued, values first:

binding [1]: no binding
binding [2]: no binding
Molecule: HDAC1, endogenous in K562 cells (from UniProt Q13547 1-482) (enzyme)

binding [5]: no binding
binding [6]: no binding
B1: GSE1, endogenous in K562 cells (protein, UniProt Q14687 1-1217)
chain: MKGMSHEPKSPSLGMLSTATRTTATVNPLTPSPLNGALVPSGSPATSSALSAQAAPSSSFAAALRKLAKQAEEPRGSSLSSESSPVSSPATNHSSPASTPKRVPMGPIIVPPGGHSVPSTPPVVTIAPTKTVNGVWRSESRQDAGSRSSSGGRERLIVEPPLPQEKAGGPAIPSHLLSTPYPFGLSPSSVVQDSRFPPLNLQRPVHHVVPPSTVTEDYLRSFRPYHTTDDLRMSSLPPLGLDPATAAAYYHPSYLAPHPFPHPAFRMDDSYCLSALRSPFYPIPTPGSLPPLHPSAMHLHLSGVRYPPELSHSSLAALHSERMSGLSAERLQMDEELRREREREREREREREADREREKEREREREKEREQEKEREREKERERELERQREQRAREKELLAAKALEPSFLPVAELHGLRGHATEERGKPSEQLTPTRAEKLKDAGLQAPKPVQHPLHPVPTPHHTVPSLISNHGIFSLPSSSAATALLIQRTNEEEKWLARQRRLRQEKEDRQSQVSEFRQQVLEQHLDMGRPPVPAEAEHRPESTTRPGPNRHEPGGRDPPQHFGGPPPLISPKPQLHAAPTALWNPVSLMDNTLETRRAESHSLHSHPAAFEPSRQAAVPLVKVERVFCPEKAEEGPRKREPAPLDKYQPPPPPPREGGSLEHQPFLPGPGPFLAELEKSTQTILGQQRASLPQAATFGELSGPLKPGSPYRPPVPRAPDPAYIYDEFLQQRRRLVSKLDLEERRRREAQEKGYYYDLDDSYDESDEEEVRAHLRCVAEQPPLKLDTSSEKLEFLQLFGLTTQQQKEELVAQKRRKRRRMLRERSPSPPTIQSKRQTPSPRLALSTRYSPDEMNNSPNFEEKKKFLTIFNLTHISAEKRKDKERLVEMLRAMKQKALSAAVADSLTNSPRDSPAVSLSEPATQQASLDVEKPVGVAASLSDIPKAAEPGKLEQVRPQELSRVQELAPASGEKARLSEAPGGKKSLSMLHYIRGAAPKDIPVPLSHSTNGKSKPWEPFVAEEFAHQFHESVLQSTQKALQKHKGSVAVLSAEQNHKVDTSVHYNIPELQSSSRAPPPQHNGQQEPPTARKGPPTQELDRDSEEEEEEDDEDGEDEEEVPKRKWQGIEAVFEAYQEHIEEQNLERQVLQTQCRRLEARHYSLSLTAEQLSHSVAELRSQKQKMVSERERLQAELDHLRKCLALPAMHWPRGYLKGYPR

binding [5]: no binding
binding [6]: no binding
B2: ZMYM2, endogenous in K562 cells (protein, UniProt Q9UBW7 1-1377)
chain: MDTSSVGGLELTDQTPVLLGSTAMATSLTNVGNSFSGPANPLVSRSNKFQNSSVEDDDDVVFIEPVQPPPPSVPVVADQRTITFTSSKNEELQGNDSKITPSSKELASQKGSVSETIVIDDEEDMETNQGQEKNSSNFIERRPPETKNRTNDVDFSTSSFSRSKVNAGMGNSGITTEPDSEIQIANVTTLETGVSSVNDGQLENTDGRDMNLMITHVTSLQNTNLGDVSNGLQSSNFGVNIQTYTPSLTSQTKTGVGPFNPGRMNVAGDVFQNGESATHHNPDSWISQSASFPRNQKQPGVDSLSPVASLPKQIFQPSVQQQPTKPVKVTCANCKKPLQKGQTAYQRKGSAHLFCSTTCLSSFSHKPAPKKLCVMCKKDITTMKGTIVAQVDSSESFQEFCSTSCLSLYEDKQNPTKGALNKSRCTICGKLTEIRHEVSFKNMTHKLCSDHCFNRYRMANGLIMNCCEQCGEYLPSKGAGNNVLVIDGQQKRFCCQSCVSEYKQVGSHPSFLKEVRDHMQDSFLMQPEKYGKLTTCTGCRTQCRFFDMTQCIGPNGYMEPYCSTACMNSHKTKYAKSQSLGIICHFCKRNSLPQYQATMPDGKLYNFCNSSCVAKFQALSMQSSPNGQFVAPSDIQLKCNYCKNSFCSKPEILEWENKVHQFCSKTCSDDYKKLHCIVTYCEYCQEEKTLHETVNFSGVKRPFCSEGCKLLYKQDFARRLGLRCVTCNYCSQLCKKGATKELDGVVRDFCSEDCCKKFQDWYYKAARCDCCKSQGTLKERVQWRGEMKHFCDQHCLLRFYCQQNEPNMTTQKGPENLHYDQGCQTSRTKMTGSAPPPSPTPNKEMKNKAVLCKPLTMTKATYCKPHMQTKSCQTDDTWRTEYVPVPIPVPVYIPVPMHMYSQNIPVPTTVPVPVPVPVFLPAPLDSSEKIPAAIEELKSKVSSDALDTELLTMTDMMSEDEGKTETTNINSVIIETDIIGSDLLKNSDPETQSSMPDVPYEPDLDIEIDFPRAAEELDMENEFLLPPVFGEEYEEQPRPRSKKKGAKRKAVSGYQSHDDSSDNSECSFPFKYTYGVNAWKHWVKTRQLDEDLLVLDELKSSKSVKLKEDLLSHTTAELNYGLAHFVNEIRRPNGENYAPDSIYYLCLGIQEYLCGSNRKDNIFIDPGYQTFEQELNKILRSWQPSILPDGSIFSRVEEDYLWRIKQLGSHSPVALLNTLFYFNTKYFGLKTVEQHLRLSFGTVFRHWKKNPLTMENKACLRYQVSSLCGTDNEDKITTGKRKHEDDEPVFEQIENTANPSRCPVKMFECYLSKSPQNLNQRMDVFYLQPECSSSTDSPVWYTSTSLDRNTLENMLVRVLLVKDIYDKDNYELDEDTD

From doi:10.1101/519090
